Measurements published in article PMC5035144.
These are yes or no findings as the source states them, for the method shown. In cells and extracts the contact can be indirect. For part of these data: Sequences can lack the tags named with a protein.

Amino acid sequences for entries named in this document (tags omitted).
UniProt Q6ZW49: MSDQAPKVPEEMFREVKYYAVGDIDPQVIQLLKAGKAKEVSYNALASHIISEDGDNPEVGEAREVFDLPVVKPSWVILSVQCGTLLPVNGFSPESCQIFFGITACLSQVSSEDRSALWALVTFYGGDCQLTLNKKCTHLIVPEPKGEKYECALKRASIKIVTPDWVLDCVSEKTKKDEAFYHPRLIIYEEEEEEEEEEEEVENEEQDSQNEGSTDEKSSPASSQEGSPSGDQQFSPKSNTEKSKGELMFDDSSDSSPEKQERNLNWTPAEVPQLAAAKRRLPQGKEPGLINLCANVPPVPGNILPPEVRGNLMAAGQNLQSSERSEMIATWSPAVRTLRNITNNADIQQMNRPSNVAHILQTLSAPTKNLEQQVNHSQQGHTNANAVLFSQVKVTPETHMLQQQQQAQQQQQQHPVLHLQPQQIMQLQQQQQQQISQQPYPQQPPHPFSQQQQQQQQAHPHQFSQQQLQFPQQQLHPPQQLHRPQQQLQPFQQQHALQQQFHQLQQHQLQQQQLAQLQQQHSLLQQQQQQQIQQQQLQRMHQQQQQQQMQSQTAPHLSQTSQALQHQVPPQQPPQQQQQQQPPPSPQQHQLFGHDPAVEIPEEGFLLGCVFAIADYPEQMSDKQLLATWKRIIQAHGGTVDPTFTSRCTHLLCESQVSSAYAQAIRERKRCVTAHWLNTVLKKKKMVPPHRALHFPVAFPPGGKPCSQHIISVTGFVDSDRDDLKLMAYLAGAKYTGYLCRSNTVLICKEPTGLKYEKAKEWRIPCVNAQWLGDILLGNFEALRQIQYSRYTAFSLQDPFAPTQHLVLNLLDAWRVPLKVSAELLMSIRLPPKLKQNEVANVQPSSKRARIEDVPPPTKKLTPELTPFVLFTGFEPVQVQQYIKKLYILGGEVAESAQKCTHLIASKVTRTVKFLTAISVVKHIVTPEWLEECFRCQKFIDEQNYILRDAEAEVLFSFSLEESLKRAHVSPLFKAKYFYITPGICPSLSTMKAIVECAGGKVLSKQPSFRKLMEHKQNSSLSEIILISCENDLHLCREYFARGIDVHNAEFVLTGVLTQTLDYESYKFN
UniProt Q96RG2: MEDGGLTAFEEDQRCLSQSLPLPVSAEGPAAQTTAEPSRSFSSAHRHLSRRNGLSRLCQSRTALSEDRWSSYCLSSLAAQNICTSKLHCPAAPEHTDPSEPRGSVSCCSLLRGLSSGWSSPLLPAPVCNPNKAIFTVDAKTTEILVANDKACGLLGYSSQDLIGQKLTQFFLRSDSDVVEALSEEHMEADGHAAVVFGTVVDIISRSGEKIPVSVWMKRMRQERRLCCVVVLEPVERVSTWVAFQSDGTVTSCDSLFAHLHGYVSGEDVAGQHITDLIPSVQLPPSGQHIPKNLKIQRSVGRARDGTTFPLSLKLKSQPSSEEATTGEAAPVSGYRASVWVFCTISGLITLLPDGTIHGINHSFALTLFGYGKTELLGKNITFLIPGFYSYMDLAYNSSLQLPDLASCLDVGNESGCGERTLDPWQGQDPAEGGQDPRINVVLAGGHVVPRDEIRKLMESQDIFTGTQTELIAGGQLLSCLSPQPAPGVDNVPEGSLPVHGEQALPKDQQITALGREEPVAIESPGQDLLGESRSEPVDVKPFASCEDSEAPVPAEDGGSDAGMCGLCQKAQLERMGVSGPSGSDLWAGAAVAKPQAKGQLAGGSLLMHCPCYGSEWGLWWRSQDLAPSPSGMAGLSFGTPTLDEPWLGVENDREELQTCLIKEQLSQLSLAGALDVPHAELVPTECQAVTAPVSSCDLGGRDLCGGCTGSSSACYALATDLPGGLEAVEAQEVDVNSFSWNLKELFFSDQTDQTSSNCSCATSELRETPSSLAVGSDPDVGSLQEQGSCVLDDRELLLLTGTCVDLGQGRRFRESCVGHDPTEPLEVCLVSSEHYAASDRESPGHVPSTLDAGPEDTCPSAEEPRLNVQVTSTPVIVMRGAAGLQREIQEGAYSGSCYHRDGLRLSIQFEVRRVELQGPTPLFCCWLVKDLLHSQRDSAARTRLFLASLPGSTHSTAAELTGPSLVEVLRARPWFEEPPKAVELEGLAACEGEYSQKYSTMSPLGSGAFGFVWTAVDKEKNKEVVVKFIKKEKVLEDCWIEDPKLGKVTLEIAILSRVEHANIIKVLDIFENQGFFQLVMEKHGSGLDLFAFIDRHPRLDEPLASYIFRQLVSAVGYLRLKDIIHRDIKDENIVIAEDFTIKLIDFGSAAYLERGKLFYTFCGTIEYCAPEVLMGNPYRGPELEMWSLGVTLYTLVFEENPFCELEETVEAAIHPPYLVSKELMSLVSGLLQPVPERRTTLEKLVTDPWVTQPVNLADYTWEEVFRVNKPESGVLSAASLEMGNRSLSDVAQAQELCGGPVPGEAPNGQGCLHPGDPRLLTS

Assays:
Assay in all cases: co-IP; Flag-tagged proteins expressed in 293T cells and immunoprecipitated with anti-Flag antibody; endogenous partners detected by western blot
[1] = molecular target: T1, Flag-Set9 (UniProt Q8WTS6)
T1 sequence: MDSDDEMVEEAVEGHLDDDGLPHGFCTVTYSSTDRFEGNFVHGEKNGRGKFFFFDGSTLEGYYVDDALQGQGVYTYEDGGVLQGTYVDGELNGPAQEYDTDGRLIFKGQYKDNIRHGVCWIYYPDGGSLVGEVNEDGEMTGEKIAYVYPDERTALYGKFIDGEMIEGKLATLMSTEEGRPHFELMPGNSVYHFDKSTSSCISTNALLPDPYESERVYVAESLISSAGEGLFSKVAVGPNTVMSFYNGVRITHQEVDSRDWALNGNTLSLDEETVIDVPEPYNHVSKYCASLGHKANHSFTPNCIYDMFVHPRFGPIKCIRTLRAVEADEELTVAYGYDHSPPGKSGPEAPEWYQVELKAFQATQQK

[2] = molecular target: T2, Flag-Menin (UniProt O00255)
T2 sequence: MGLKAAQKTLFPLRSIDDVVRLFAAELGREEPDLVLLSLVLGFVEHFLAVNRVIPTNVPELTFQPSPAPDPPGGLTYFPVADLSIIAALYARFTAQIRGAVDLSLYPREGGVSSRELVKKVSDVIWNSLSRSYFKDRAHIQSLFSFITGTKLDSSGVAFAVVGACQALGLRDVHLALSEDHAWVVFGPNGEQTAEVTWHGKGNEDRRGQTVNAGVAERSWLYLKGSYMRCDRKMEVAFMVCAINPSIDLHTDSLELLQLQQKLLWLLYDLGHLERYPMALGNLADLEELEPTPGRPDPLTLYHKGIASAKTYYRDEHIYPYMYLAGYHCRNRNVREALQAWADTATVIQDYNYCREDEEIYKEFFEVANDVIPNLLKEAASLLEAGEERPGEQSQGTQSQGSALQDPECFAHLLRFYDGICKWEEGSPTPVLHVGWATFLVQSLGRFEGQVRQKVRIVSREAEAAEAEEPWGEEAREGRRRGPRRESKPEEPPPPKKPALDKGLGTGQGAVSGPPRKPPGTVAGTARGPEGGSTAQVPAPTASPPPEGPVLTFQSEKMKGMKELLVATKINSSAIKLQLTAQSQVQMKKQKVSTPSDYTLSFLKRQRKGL

[3] = molecular target: Flag-PTIP (UniProt Q6ZW49)

- binding [1]: no binding
- binding [2]: no binding
- binding [3]: no binding
Substance: Pask, endogenous in HEK293T cells (from UniProt Q96RG2 1-1323) (enzyme)
